{"sequences": {"note": "The chains behind the UniProt entries cited, without tags or fusion partners.", "UniProt O35253": "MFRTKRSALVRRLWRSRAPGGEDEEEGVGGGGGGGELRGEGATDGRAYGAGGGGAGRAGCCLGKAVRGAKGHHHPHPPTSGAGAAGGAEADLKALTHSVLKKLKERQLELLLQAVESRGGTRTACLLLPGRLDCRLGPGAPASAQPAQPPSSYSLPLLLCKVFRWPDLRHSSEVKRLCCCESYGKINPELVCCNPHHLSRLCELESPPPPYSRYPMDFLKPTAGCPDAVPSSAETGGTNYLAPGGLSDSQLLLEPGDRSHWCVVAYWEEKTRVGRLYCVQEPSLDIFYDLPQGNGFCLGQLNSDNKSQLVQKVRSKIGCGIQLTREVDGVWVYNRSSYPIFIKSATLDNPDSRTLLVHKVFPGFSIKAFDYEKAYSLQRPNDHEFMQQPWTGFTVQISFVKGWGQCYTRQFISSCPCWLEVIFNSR"}, "source": "paper doi:10.1101/743930", "biological_target": "Microtubule-actin cross-linking factor 1 (MACF1) (mouse (endogenous in MC3T3-E1 and in mouse MSCs)) (UniProt Q9QXZ0)", "assay": "co-IP", "note": "No constants are given. Whether binding was seen depends on the method and setting. In cells and extracts the contact can be indirect. Some results given as binding are weak or reduced against the parent protein; the word gives no strength."}
{"substance": "SMAD7 (from UniProt O35253 1-426)", "values": [{"measurement": "binding", "result": "binds"}]}
